Common to all, as to settings: Compound concentration 20.0 uM
For test [1], the target named is Tyrosine-protein kinase ABL1 (Homo sapiens) (UniProt P00519).
For test [2], the target named is Bromodomain-containing protein 4 (Homo sapiens) (UniProt O60885).
Test [3] addresses Cyclin-dependent kinase 2 (Homo sapiens) (UniProt P24941).
The target of test [4] is Casein kinase I isoform delta (Homo sapiens) (UniProt P48730).
The target of test [5] is Glycogen synthase kinase-3 beta (Homo sapiens) (UniProt P49841).
Test [6] has as its target Mitogen-activated protein kinase 1 (Homo sapiens) (UniProt P28482).
The target in test [7] is T1, Aurora kinase A (Homo sapiens) (UniProt O14965).
T1 sequence (whole entry): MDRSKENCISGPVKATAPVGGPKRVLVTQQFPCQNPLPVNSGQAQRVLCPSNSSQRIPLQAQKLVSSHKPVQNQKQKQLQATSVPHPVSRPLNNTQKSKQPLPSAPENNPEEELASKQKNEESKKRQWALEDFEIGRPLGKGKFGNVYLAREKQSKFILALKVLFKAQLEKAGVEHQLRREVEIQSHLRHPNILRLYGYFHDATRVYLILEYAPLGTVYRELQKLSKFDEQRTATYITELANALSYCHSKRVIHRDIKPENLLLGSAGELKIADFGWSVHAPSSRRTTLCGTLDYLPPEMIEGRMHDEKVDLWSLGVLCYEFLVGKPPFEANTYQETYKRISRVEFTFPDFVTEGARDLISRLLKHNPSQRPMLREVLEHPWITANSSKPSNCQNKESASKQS

The chains behind the UniProt entries cited, without tags or fusion partners. Where a name states a change or a piece, a line headed by the entry shows the natural chain unless it says otherwise.
UniProt P00519, whole entry: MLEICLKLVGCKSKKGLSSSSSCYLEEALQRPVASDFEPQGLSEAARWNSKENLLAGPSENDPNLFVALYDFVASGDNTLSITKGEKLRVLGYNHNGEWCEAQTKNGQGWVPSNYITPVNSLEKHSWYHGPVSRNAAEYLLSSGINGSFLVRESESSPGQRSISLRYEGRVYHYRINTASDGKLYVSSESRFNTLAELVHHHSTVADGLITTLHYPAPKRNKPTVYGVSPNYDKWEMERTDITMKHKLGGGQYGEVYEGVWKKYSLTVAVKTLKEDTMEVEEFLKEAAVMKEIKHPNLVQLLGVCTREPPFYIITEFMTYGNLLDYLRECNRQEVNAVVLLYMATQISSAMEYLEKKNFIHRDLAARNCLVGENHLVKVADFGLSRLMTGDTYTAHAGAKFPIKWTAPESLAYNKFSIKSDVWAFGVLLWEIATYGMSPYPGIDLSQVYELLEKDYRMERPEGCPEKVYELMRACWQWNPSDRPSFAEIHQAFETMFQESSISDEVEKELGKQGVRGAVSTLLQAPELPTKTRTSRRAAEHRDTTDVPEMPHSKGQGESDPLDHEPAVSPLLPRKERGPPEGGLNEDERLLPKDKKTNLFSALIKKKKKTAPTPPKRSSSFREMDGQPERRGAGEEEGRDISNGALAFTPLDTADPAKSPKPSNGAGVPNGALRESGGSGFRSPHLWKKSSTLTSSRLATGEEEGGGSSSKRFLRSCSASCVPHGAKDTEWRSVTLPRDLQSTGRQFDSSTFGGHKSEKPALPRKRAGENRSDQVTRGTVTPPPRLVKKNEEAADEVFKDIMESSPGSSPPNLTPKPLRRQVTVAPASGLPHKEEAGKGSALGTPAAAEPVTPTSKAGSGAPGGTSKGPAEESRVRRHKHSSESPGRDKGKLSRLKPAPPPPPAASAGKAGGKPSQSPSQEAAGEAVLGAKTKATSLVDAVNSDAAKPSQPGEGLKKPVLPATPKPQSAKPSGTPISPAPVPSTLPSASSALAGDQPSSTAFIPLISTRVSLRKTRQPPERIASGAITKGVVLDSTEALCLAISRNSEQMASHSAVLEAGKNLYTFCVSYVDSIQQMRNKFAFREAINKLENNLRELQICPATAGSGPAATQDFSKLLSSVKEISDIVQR
UniProt P48730: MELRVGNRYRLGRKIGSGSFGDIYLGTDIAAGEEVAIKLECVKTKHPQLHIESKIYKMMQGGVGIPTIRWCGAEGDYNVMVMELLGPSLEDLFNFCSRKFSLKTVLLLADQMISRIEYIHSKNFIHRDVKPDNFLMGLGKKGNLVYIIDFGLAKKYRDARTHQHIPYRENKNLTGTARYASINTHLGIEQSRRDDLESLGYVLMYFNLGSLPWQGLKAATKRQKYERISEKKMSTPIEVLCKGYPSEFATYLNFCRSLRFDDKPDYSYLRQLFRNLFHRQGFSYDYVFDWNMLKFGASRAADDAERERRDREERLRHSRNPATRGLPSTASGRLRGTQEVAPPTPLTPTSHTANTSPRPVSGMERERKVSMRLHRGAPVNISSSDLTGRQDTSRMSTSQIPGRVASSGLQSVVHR
UniProt P49841: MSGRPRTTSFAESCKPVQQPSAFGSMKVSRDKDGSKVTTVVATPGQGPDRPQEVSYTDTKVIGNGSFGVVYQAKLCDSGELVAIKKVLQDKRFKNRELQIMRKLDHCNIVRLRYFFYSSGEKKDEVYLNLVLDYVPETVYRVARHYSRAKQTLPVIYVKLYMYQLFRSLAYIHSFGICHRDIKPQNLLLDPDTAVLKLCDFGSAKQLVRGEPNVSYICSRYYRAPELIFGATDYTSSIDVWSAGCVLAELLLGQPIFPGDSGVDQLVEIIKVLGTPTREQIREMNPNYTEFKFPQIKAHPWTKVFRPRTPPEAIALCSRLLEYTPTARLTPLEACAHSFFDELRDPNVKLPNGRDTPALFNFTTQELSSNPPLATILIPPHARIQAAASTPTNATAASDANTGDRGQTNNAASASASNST
UniProt P28482, whole entry: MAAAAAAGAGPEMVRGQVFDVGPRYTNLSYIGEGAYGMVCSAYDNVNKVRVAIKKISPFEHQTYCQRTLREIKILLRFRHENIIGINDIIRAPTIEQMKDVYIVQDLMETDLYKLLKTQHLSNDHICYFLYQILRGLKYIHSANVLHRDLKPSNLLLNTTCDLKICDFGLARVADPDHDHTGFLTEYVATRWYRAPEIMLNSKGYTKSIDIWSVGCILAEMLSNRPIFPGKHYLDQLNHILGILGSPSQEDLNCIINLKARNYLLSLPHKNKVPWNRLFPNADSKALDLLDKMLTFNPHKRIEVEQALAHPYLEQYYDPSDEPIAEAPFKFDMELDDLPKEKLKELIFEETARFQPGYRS

The target of test [8] is T2, Transcription intermediary factor 1-alpha (Homo sapiens) (UniProt O15164).
T2 sequence (whole entry): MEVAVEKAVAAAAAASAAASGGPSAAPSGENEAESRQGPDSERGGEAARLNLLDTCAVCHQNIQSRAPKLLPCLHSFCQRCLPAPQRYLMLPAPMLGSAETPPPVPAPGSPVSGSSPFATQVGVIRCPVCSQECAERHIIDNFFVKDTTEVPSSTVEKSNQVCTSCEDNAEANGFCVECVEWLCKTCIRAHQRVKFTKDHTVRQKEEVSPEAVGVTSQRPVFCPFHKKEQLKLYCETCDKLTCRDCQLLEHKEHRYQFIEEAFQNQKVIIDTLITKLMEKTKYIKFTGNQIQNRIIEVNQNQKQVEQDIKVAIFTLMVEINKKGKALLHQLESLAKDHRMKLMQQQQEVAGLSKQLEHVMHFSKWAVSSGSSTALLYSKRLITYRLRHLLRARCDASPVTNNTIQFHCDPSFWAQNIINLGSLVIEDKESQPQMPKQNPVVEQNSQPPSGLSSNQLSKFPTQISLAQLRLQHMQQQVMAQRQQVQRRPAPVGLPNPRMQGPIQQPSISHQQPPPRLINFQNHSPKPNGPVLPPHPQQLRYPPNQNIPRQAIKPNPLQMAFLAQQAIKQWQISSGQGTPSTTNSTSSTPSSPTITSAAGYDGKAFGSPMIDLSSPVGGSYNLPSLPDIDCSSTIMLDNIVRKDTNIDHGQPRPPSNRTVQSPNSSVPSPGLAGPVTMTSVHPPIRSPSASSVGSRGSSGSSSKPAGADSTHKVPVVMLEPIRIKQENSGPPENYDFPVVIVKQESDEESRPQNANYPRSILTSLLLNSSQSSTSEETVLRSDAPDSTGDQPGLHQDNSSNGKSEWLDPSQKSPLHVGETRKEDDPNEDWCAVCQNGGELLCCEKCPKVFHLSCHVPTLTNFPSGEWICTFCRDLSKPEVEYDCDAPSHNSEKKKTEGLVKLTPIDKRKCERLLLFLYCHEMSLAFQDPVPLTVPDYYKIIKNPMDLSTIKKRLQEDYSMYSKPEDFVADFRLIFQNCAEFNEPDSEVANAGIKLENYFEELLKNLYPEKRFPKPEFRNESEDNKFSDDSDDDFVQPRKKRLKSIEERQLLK

Experimental findings from ChEMBL document CHEMBL5724796, “Tm Shift (DSF) assay results for EUbOPEN Chemogenomics Library” (2024) are described below.

Values joined by “and” are separate entries in the source; they are usually repeats but may differ in a detail not shown here. Identical values can stand only once. For part of these data: Shown are results outside the selection of highest values, which stands elsewhere. For part of these data: This list holds what a sample rich in lowest values left over.

For the compound `Cc1ccc(C(=O)NCCCCCC(=O)Nc2ccccc2N)cc1`, the thermal shift (ΔTm) – broadly, the shift of the melting midpoint relative to a reference – in test [1] is 0.46 °C and 0.22 °C; in test [2], -1.41 °C and -1.71 °C; in test [3], 0.28 °C and -0.1 °C; in test [4] it was 0.2 °C and 0.24 °C; in test [5], -0.11 °C and -0.27 °C; in test [6] it was -0.44 °C and 0.15 °C. Further, the ΔTm in test [7] was -0.42 °C and -0.94 °C; in test [8], -0.6 °C and -0.7 °C.

For the compound `COC[C@@H](NC(=O)N1CC(=O)Nc2cc(OC)cnc21)c1ccc(OC(F)(F)F)c(F)c1`, the ΔTm in test [1] was 0.59 °C; in test [2], -3.58 °C; in test [3] it was 0.3 °C; in test [4], -0.92 °C; in test [5], -1.86 °C; in test [6] it was -0.07 °C. The ΔTm was -1.99 °C in test [7] and 0.66 °C in test [8].

Turning to `CNC(=O)c1ccc(-c2cc3cccc(-c4nn(C5CCOCC5)c5c4CN(C(C)=O)CC5)c3cn2)cn1`, the ΔTm in test [1] was -0.18 °C; in test [2], 1.5 °C; in test [3] it was 0.34 °C; in test [4], 0.16 °C; in test [5], -1.61 °C; in test [6] it was -0.23 °C. The shift in melting temperature (ΔTm) in test [7] is -0.41 °C; in test [8] it was -1.27 °C.
